System: rats
Experiment: Open field test (OFT)
Format: in vivo, rat
Procedure: Data are mean +/− SEM. N=6 per group. * p<0.05; **p<0.01 vs. vehicle control group.
Method: Consecutive beam breaks and/or video-tracking of time spent in the center versus periphery of the open field are measured. Also measured are parameters such as distance traveled and ambulatory activity (horizontal and vertical) for the duration of the test session.
The open field test (OFT) capitalizes on a rodent's innate fear of open spaces to assess anxiety-like behavior. More time spent in the center of an open field reflects an anxiolytic (anti-anxiety) effect.

Q: Which results are given for `CNC(C)C(=O)c1ccc2c(c1)OCO2` (centres unmarked) [methylone, 3,4-methylenedioxy-N-methylcathinone]?
A: locomotor activity compared to vehicle (methylone 5 mg/kg): no effect; locomotor activity compared to vehicle (methylone 15 or 30 mg/kg): significant increase

From patent US20250221957A1, “PS[…] AND THEIR USE FOR TREATING […] AND NE[…] DISORDERS” (Transcend Therapeutics, Inc., priority 2021, published 2025)
